Experimental data published in paper PMC7914341.
These are yes or no findings as the source states them, for the method shown. In cells and extracts the contact can be indirect. A result given as binding can be weak or reduced; the word gives no strength. Sequences can lack the tags named with a protein.

Biological target: T1, Flag-tagged human PRLR S1a isoform (PRLR-SF) (human) (UniProt P16471)
T1 sequence: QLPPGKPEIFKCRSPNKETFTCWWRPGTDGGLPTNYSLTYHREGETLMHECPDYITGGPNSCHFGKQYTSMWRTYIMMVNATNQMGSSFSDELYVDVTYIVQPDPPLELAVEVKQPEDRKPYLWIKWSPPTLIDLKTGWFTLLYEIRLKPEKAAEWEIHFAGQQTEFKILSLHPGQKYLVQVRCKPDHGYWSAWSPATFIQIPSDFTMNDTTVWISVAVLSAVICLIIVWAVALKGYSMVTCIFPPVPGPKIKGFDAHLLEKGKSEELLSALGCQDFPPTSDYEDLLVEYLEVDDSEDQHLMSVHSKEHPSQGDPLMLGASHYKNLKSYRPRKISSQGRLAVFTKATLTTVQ
Assay: co-IP; AsPC-1 cells co-transfected with HA-tagged NEK9 and Flag-tagged PRLR; lysates incubated with anti-HA or anti-Flag antibody or control IgG coupled beads overnight at 4 C; western blotting

binding: binds
Substance: HA-tagged human NEK9 (enzyme)
